Source: the supplement of paper PMC4604168 (melanoma cell lines)
The other results are listed elsewhere or left out. Repeats are few or missing, and single values can be far off.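 Imaging used 1,536-well plates; nuclei positive for cleaved PARP by antibody were divided by total DNA-stained nuclei to yield the apoptosis fraction. Doses for screening kept most cells viable, and cell lines differ markedly in resting and induced cleaved-PARP levels.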

Experiments:
Test in all cases: cleaved PARP positive nuclei fraction relative to DMSO control; melanoma cells; higher = more apoptosis
Settings in all cases: library dose: low library concentration; 72 h
WM115 = system: WM115
WM1716 = system: WM1716
WM1745 = system: WM1745
WM3526 = system: WM3526
WM3619 = system: WM3619
WM451Lu = system: WM451Lu

## C[C@]1(O)C[C@@H](c2nc(-c3ccc4ccc(-c5ccccc5)nc4c3)c3c(N)nccn32)C1 + CC(C)(C)c1cnc(CSc2cnc(NC(=O)C3CCNCC3)s2)o1 [SNS-032] (first compound 0.4 µM, partner dose 0.01 µM)
WM115
  cleaved PARP positive nuclei fraction: 153%
WM1716
  cleaved PARP positive nuclei fraction: 176%
WM1745
  cleaved PARP positive nuclei fraction: 126%
WM3526
  cleaved PARP positive nuclei fraction: 67.4%
WM3619
  cleaved PARP positive nuclei fraction: 103%
WM451Lu
  cleaved PARP positive nuclei fraction: 493%

## COc1ccc(C2=N[C@@H](c3ccc(Cl)cc3)[C@@H](c3ccc(Cl)cc3)N2C(=O)N2CCNC(=O)C2)c(OC(C)C)c1 [Nutlin-3] + OCCn1cc(-c2cnc3nnn(Cc4ccc5ncccc5c4)c3n2)cn1 [PF04217903] (first compound 0.1 µM, partner dose 1 µM)
WM115
  cleaved PARP positive nuclei fraction: 69.2%
WM1716
  cleaved PARP positive nuclei fraction: 109%
WM1745
  cleaved PARP positive nuclei fraction: 84.4%
WM3526
  cleaved PARP positive nuclei fraction: 197%
WM3619
  cleaved PARP positive nuclei fraction: 105%
WM451Lu
  cleaved PARP positive nuclei fraction: 51.5%

## NC1(c2ccc(-c3nc4ccn5c(=O)[nH]nc5c4cc3-c3ccccc3)cc2)CCC1 + COCC[n+]1c2c(n(Cc3cnccn3)c1C)C(=O)c1ccccc1C2=O [YM155] (first compound 0.4 µM, partner dose 0.0004 µM)
WM115
  cleaved PARP positive nuclei fraction: 265%
WM1716
  cleaved PARP positive nuclei fraction: 284%
WM1745
  cleaved PARP positive nuclei fraction: 110%
WM3526
  cleaved PARP positive nuclei fraction: 86%
WM3619
  cleaved PARP positive nuclei fraction: 193%
WM451Lu
  cleaved PARP positive nuclei fraction: 439%

## NC1(c2ccc(-c3nc4ccn5c(=O)[nH]nc5c4cc3-c3ccccc3)cc2)CCC1 + O=C(O)[C@@H]1[O][Sb](=[O])([O][Sb]2(=[O])[O][C@H]([C@H](O)CO)[C@H](O)[C@H](C(=O)O)[O]2)[O][C@H]([C@H](O)CO)[C@@H]1O [stibogluconate] (first compound 0.4 µM, partner dose 2 µM)
WM115
  cleaved PARP positive nuclei fraction: 153%
WM1716
  cleaved PARP positive nuclei fraction: 197%
WM1745
  cleaved PARP positive nuclei fraction: 211%
WM3526
  cleaved PARP positive nuclei fraction: 202%
WM3619
  cleaved PARP positive nuclei fraction: 99.8%
WM451Lu
  cleaved PARP positive nuclei fraction: 49.2%

## CN(c1ncccc1CNc1nc(Nc2ccc3c(c2)CC(=O)N3)ncc1C(F)(F)F)S(C)(=O)=O + Cc1ccc(NC(=O)c2cccc(N(C)C)c2)cc1NC(=O)c1ccc(O)cc1 [ZM336372] (first compound 0.08 µM, partner dose 2 µM)
WM115
  cleaved PARP positive nuclei fraction: 169%
WM1716
  cleaved PARP positive nuclei fraction: 167%
WM1745
  cleaved PARP positive nuclei fraction: 90.6%
WM3526
  cleaved PARP positive nuclei fraction: 58.3%
WM3619
  cleaved PARP positive nuclei fraction: 105%
WM451Lu
  cleaved PARP positive nuclei fraction: 62.2%

## CC1(C)CCC(c2ccc(Cl)cc2)=C(CN2CCN(c3ccc(C(=O)NS(=O)(=O)c4ccc(N[C@H](CCN5CCOCC5)CSc5ccccc5)c(S(=O)(=O)C(F)(F)F)c4)cc3)CC2)C1 + Cn1cc(/C=C2\C(=O)Nc3cccnc32)c2ccccc21 [GW441756] (first compound 0.4 µM, partner dose 0.4 µM)
WM115
  cleaved PARP positive nuclei fraction: 185%
WM1716
  cleaved PARP positive nuclei fraction: 72.6%
WM1745
  cleaved PARP positive nuclei fraction: 493%
WM3526
  cleaved PARP positive nuclei fraction: 55%
WM3619
  cleaved PARP positive nuclei fraction: 165%
WM451Lu
  cleaved PARP positive nuclei fraction: 88.9%

## CN(c1ncccc1CNc1nc(Nc2ccc3c(c2)CC(=O)N3)ncc1C(F)(F)F)S(C)(=O)=O + CS(=O)(=O)CCNCc1ccc(-c2ccc3ncnc(Nc4ccc(OCc5cccc(F)c5)c(Cl)c4)c3c2)o1 [lapatinib] (first compound 0.08 µM, partner dose 0.8 µM)
WM115
  cleaved PARP positive nuclei fraction: 237%
WM1716
  cleaved PARP positive nuclei fraction: 1190%
WM1745
  cleaved PARP positive nuclei fraction: 275%
WM3526
  cleaved PARP positive nuclei fraction: 187%
WM3619
  cleaved PARP positive nuclei fraction: 83.2%
WM451Lu
  cleaved PARP positive nuclei fraction: 122%

## CN(c1ncccc1CNc1nc(Nc2ccc3c(c2)CC(=O)N3)ncc1C(F)(F)F)S(C)(=O)=O + O=C(Nc1ccccc1)c1cc([N+](=O)[O-])ccc1Cl [GW9662] (first compound 0.08 µM, partner dose 2 µM)
WM115
  cleaved PARP positive nuclei fraction: 75.5%
WM1716
  cleaved PARP positive nuclei fraction: 100%
WM1745
  cleaved PARP positive nuclei fraction: 94.7%
WM3526
  cleaved PARP positive nuclei fraction: 61.2%
WM3619
  cleaved PARP positive nuclei fraction: 77.8%
WM451Lu
  cleaved PARP positive nuclei fraction: 473%

## CS(=O)(=O)c1ccc(C(=O)Nc2ccc(Cl)c(-c3ccccn3)c2)c(Cl)c1 [vismodegib] + O=C(O)C(=O)Nc1sc2c(c1C(=O)O)CCNC2 [TCS401] (first compound 1 µM, partner dose 1.66667 µM)
WM115
  cleaved PARP positive nuclei fraction: 35.8%
WM1716
  cleaved PARP positive nuclei fraction: 53.9%
WM1745
  cleaved PARP positive nuclei fraction: 98%
WM3526
  cleaved PARP positive nuclei fraction: 80.7%
WM3619
  cleaved PARP positive nuclei fraction: 89.7%
WM451Lu
  cleaved PARP positive nuclei fraction: 68.8%

## C[C@@H](N)c1ccc(C(=O)Nc2ccnc3[nH]ccc23)cc1 + Cc1cc(Nc2cc(N3CCN(C)CC3)nc(/C=C/c3ccccc3)n2)n[nH]1 [ENMD2076] (first compound 0.4 µM, partner dose 0.04 µM)
WM115
  cleaved PARP positive nuclei fraction: 29.8%
WM1716
  cleaved PARP positive nuclei fraction: 52.9%
WM1745
  cleaved PARP positive nuclei fraction: 153%
WM3526
  cleaved PARP positive nuclei fraction: 73%
WM3619
  cleaved PARP positive nuclei fraction: 96.3%
WM451Lu
  cleaved PARP positive nuclei fraction: 242%

## NC1(c2ccc(-c3nc4ccn5c(=O)[nH]nc5c4cc3-c3ccccc3)cc2)CCC1 + NC(=O)Nc1cc(-c2cccc(F)c2)sc1C(=O)N[C@H]1CCCNC1 [AZD7762] (first compound 0.4 µM, partner dose 0.02 µM)
WM115
  cleaved PARP positive nuclei fraction: 243%
WM1716
  cleaved PARP positive nuclei fraction: 212%
WM1745
  cleaved PARP positive nuclei fraction: 105%
WM3526
  cleaved PARP positive nuclei fraction: 69.6%
WM3619
  cleaved PARP positive nuclei fraction: 108%
WM451Lu
  cleaved PARP positive nuclei fraction: 151%

## C[C@]1(O)C[C@@H](c2nc(-c3ccc4ccc(-c5ccccc5)nc4c3)c3c(N)nccn32)C1 + C[C@@H](Oc1cc(-c2cnn(C3CCNCC3)c2)cnc1N)c1c(Cl)ccc(F)c1Cl [Crizotinib] (first compound 0.4 µM, partner dose 0.2 µM)
WM115
  cleaved PARP positive nuclei fraction: 82%
WM1716
  cleaved PARP positive nuclei fraction: 90.4%
WM1745
  cleaved PARP positive nuclei fraction: 216%
WM3526
  cleaved PARP positive nuclei fraction: 49.9%
WM3619
  cleaved PARP positive nuclei fraction: 89.7%
WM451Lu
  cleaved PARP positive nuclei fraction: 64.1%
